Values of other authors as cited in US12329766B2, “Compounds, methods, and treatments for abnormal signaling pathways for prenatal and postnatal development” (priority 2006, dated 2025).
Some entries share one result that the patent states for a list of compounds. At least one compound was matched to its structure with a doubt left.

By UniProt entry, the sequences of proteins in these tests, tags left out.
UniProt P31749, whole entry, species assumed: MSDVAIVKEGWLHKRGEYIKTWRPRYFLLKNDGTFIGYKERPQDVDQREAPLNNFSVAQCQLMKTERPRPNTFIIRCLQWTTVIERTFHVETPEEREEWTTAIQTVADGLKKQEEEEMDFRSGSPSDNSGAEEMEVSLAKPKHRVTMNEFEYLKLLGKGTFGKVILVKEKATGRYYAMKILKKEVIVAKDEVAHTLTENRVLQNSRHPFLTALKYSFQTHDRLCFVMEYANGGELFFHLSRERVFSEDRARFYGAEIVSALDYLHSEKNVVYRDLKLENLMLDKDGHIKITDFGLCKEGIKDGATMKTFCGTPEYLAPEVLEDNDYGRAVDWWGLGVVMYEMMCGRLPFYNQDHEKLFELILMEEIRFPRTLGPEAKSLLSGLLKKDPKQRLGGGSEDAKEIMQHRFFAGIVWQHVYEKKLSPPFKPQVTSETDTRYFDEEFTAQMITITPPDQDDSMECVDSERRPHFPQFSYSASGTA

How the values were obtained:
[1] = molecular target: T1, PDK1 (Homo sapiens, UniProt O15530); conditions: read-out: K1 values, binding to PDK1; cited from earlier work
T1 sequence (O15530 1-556): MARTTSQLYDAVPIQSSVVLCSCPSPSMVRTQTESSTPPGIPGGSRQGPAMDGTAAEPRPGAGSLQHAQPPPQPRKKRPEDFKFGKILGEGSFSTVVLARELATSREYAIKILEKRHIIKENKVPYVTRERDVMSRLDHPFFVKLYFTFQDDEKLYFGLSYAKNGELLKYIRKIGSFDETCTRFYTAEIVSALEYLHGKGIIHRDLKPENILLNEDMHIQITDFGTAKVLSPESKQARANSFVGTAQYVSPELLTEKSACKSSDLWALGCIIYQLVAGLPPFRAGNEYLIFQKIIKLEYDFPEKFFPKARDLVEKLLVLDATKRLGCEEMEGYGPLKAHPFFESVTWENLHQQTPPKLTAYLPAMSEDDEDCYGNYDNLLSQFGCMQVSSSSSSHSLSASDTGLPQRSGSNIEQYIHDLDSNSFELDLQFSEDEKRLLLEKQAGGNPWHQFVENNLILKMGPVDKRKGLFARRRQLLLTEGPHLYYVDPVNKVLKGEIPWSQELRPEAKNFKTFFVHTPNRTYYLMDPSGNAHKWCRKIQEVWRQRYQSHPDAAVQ

[2] = molecular target: PKB (Homo sapiens, UniProt P31749); conditions: 300 μM; in the presence of PtdIns(3,4,5)P3; cited from earlier work

O=P(O)(O)O[C@H]1[C@H](OP(=O)(O)O)[C@@H](OP(=O)(O)O)[C@H](OP(=O)(O)O)[C@@H](OP(=O)(O)O)[C@H]1OP(=O)(O)O [InsP6]
Ki [1]: 20 to 60 nM | inhibition of the activation and phosphorylation of PKB [2]: over 80%
